At least one compound was matched to its structure with a doubt left.
Tests used:
Type in all cases: cell-based
Candida albicans = experiment: Antimicrobial screening by agar dilution, Candida albicans
Description: (§1) The antimicrobial properties of the 4-[4,5-bis(4-bromophenyl)-1-hexyl-1H-imidazol-2-yl]isoquinolin-3-ol was studied by the method of agar dilution. Test solutions of each compound was prepared in concentration of 1% using dimethylformamide as a solvent then they are diluted in physiological solution to obtain the final experimental dilutions 1:100, 1:200, 1:400, 1:800. The effect of these substances are compared with furacillin in a controlled study. The testing microbes used were gram positive bacteria Staphylococcus aureus, gram negative bacteria Pseudomonas aeruginosa and Escherichia coli and Candida albicans fungi were taken. The experiments used for this survey were meat-pentonlu agar (EPA) for cultivation of bacteria and Saburo environment for fungi. Each experiment used 1 ml of test solution on each plate 500 min. Add 2 drops of emulsified with microbes feel. All experimental samples were taken from the agar after 10, 20, 40, 60 minutes in the environment on the basis of Patrk planted. Bacteria were cultivated at a temperature of 37° C. for 1 day and the mushroom was kept in a thermostat for […] at a temperature of 28° C. in the. Then results were checked.

Escherichia coli = experiment: Antimicrobial screening by agar dilution, Escherichia coli; details: E. Coli
Description: as §1

Pseudomonas aeruginosa = experiment: Antimicrobial screening by agar dilution, Pseudomonas aeruginosa; details: Ps. aeruginosa
Description: as §1

Staphylococcus aureus = experiment: Antimicrobial screening by agar dilution, Staphylococcus aureus; details: St. Aereus
Description: as §1

[1] = dilution rate 1:100, exposure time 10 min
[2] = dilution rate 1:100, exposure time 20 min
[3] = dilution rate 1:100, exposure time 40 min
[4] = dilution rate 1:100, exposure time 60 min
[5] = dilution rate 1:200, exposure time 10 min
[6] = dilution rate 1:200, exposure time 20 min
[7] = dilution rate 1:200, exposure time 40 min
[8] = dilution rate 1:200, exposure time 60 min
[9] = dilution rate 1:400, exposure time 10 min
[10] = dilution rate 1:400, exposure time 20 min
[11] = dilution rate 1:400, exposure time 40 min
[12] = dilution rate 1:400, exposure time 60 min
[13] = dilution rate 1:800, exposure time 10 min
[14] = dilution rate 1:800, exposure time 20 min
[15] = dilution rate 1:800, exposure time 40 min
[16] = dilution rate 1:800, exposure time 60 min

NC(=O)N/N=C/c1ccc([N+](=O)[O-])o1 [Furacilin] was tested, and the “antimicrobial activity (+/−)” value (Candida albicans; [1]) was “−”, the “antimicrobial activity (+/−)” value (Candida albicans; [2]) was “−” and the “antimicrobial activity (+/−)” value (Candida albicans; [3]) was “+”. For the same compound, the “antimicrobial activity (+/−)” value (Candida albicans; [4]) was “+”, the “antimicrobial activity (+/−)” value (Candida albicans; [5]) was “+” and the “antimicrobial activity (+/−)” value (Candida albicans; [6]) was “+”. The “antimicrobial activity (+/−)” value (Candida albicans; [7]) was “+”, the “antimicrobial activity (+/−)” value (Candida albicans; [8]) was “+” and the “antimicrobial activity (+/−)” value (Candida albicans; [9]) was “+”. The “antimicrobial activity (+/−)” value (Candida albicans; [10]) was “+”, the “antimicrobial activity (+/−)” value (Candida albicans; [11]) was “+” and the “antimicrobial activity (+/−)” value (Candida albicans; [12]) was “+”. The “antimicrobial activity (+/−)” value (Candida albicans; [13]) was “+”, the “antimicrobial activity (+/−)” value (Candida albicans; [14]) was “+” and the “antimicrobial activity (+/−)” value (Candida albicans; [15]) was “+”. For the same compound, the “antimicrobial activity (+/−)” value (Candida albicans; [16]) was “+”, the “antimicrobial activity (+/−)” value (Escherichia coli; [1]) was “−” and the “antimicrobial activity (+/−)” value (Escherichia coli; [2]) was “−”. The “antimicrobial activity (+/−)” value (Escherichia coli; [3]) was “−”, the “antimicrobial activity (+/−)” value (Escherichia coli; [4]) was “−” and the “antimicrobial activity (+/−)” value (Escherichia coli; [5]) was “+”. For the same compound, the “antimicrobial activity (+/−)” value (Escherichia coli; [6]) was “+”, the “antimicrobial activity (+/−)” value (Escherichia coli; [7]) was “+” and the “antimicrobial activity (+/−)” value (Escherichia coli; [8]) was “+”. The “antimicrobial activity (+/−)” value (Escherichia coli; [9]) was “+”, the “antimicrobial activity (+/−)” value (Escherichia coli; [10]) was “+” and the “antimicrobial activity (+/−)” value (Escherichia coli; [11]) was “+”. For the same compound, the “antimicrobial activity (+/−)” value (Escherichia coli; [12]) was “+”, the “antimicrobial activity (+/−)” value (Escherichia coli; [13]) was “+” and the “antimicrobial activity (+/−)” value (Escherichia coli; [14]) was “+”. For the same compound, the “antimicrobial activity (+/−)” value (Escherichia coli; [15]) was “+”, the “antimicrobial activity (+/−)” value (Escherichia coli; [16]) was “+” and the “antimicrobial activity (+/−)” value (Pseudomonas aeruginosa; [1]) was “+”. For the same compound, the “antimicrobial activity (+/−)” value (Pseudomonas aeruginosa; [2]) was “+”, the “antimicrobial activity (+/−)” value (Pseudomonas aeruginosa; [3]) was “+” and the “antimicrobial activity (+/−)” value (Pseudomonas aeruginosa; [4]) was “+”. For the same compound, the “antimicrobial activity (+/−)” value (Pseudomonas aeruginosa; [5]) was “+”, the “antimicrobial activity (+/−)” value (Pseudomonas aeruginosa; [6]) was “+” and the “antimicrobial activity (+/−)” value (Pseudomonas aeruginosa; [7]) was “+”. For the same compound, the “antimicrobial activity (+/−)” value (Pseudomonas aeruginosa; [8]) was “+”, the “antimicrobial activity (+/−)” value (Pseudomonas aeruginosa; [9]) was “+” and the “antimicrobial activity (+/−)” value (Pseudomonas aeruginosa; [10]) was “+”. For the same compound, the “antimicrobial activity (+/−)” value (Pseudomonas aeruginosa; [11]) was “+”, the “antimicrobial activity (+/−)” value (Pseudomonas aeruginosa; [12]) was “+” and the “antimicrobial activity (+/−)” value (Pseudomonas aeruginosa; [13]) was “+”. For the same compound, the “antimicrobial activity (+/−)” value (Pseudomonas aeruginosa; [14]) was “+”, the “antimicrobial activity (+/−)” value (Pseudomonas aeruginosa; [15]) was “+” and the “antimicrobial activity (+/−)” value (Pseudomonas aeruginosa; [16]) was “+”. The “antimicrobial activity (+/−)” value (Staphylococcus aureus; [1]) was “−”, the “antimicrobial activity (+/−)” value (Staphylococcus aureus; [2]) was “−” and the “antimicrobial activity (+/−)” value (Staphylococcus aureus; [3]) was “−”. The “antimicrobial activity (+/−)” value (Staphylococcus aureus; [4]) was “−”, the “antimicrobial activity (+/−)” value (Staphylococcus aureus; [5]) was “+” and the “antimicrobial activity (+/−)” value (Staphylococcus aureus; [6]) was “+”. For the same compound, the “antimicrobial activity (+/−)” value (Staphylococcus aureus; [7]) was “+”, the “antimicrobial activity (+/−)” value (Staphylococcus aureus; [8]) was “+” and the “antimicrobial activity (+/−)” value (Staphylococcus aureus; [9]) was “+”. For the same compound, the “antimicrobial activity (+/−)” value (Staphylococcus aureus; [10]) was “+”, the “antimicrobial activity (+/−)” value (Staphylococcus aureus; [11]) was “+” and the “antimicrobial activity (+/−)” value (Staphylococcus aureus; [12]) was “+”. The “antimicrobial activity (+/−)” value (Staphylococcus aureus; [13]) was “+”, the “antimicrobial activity (+/−)” value (Staphylococcus aureus; [14]) was “+” and the “antimicrobial activity (+/−)” value (Staphylococcus aureus; [15]) was “+”. The “antimicrobial activity (+/−)” value (Staphylococcus aureus; [16]) was “+”.
